Source: PubChem BioAssay AID192 (DTP/NCI, 2004)
The list shows only some results of the screen, not a fair sample: it gathers tests that were run many times, whatever their T/C, doses with no T/C, and many T/C values between a quarter and a half above the control. Further doses and runs are listed elsewhere. T/C is the treated group as % of the vehicle group. Some doses have a count of surviving animals in place of a T/C: the source holds a T/C of zero for them, seemingly a mark for toxic or unscored doses. Some survivor counts are full or nearly so, which does not show that the dose was tolerated: survival well below the control is almost never listed, so the zero probably covers shortened survival too. Survivors were counted at the toxicity check, usually on the fifth day, unless a day is given; later deaths do not show. Schedule codes are those of the source, taken here to give the interval after Q, in days (D) or hours (H), and the number of doses after X. For survival time, the PubChem record calls one and a half times the control and up active, and a quarter to a half above the control has no call in these data; cut-offs in other NCI protocols can differ.

System: BDF1 mice, B16 melanoma ip, median survival T/C
Assay: NCI In Vivo Anticancer Drug Screen. Data for tumor model B16 Melanoma (intraperitoneal) in B6D2F1 (BDF1) mice
Details: T/C endpoint: median survival time, higher T/C = longer survival
Method in brief: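 Tumor-bearing mice received test compound or vehicle. Survival or tumor size was then measured in both groups. The treated-group figure was divided by the control-group figure.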

[1] = dose: 200.0 mg/kg/injection, schedule: Q01DX009 (ip), vehicle: Klucel (hydroxypropylcellulose) (HPC)
[2] = dose: 400.0 mg/kg/injection, schedule: Q01DX009 (ip), vehicle: Klucel (hydroxypropylcellulose) (HPC)
[3] = dose: 50.0 mg/kg/injection, schedule: Q01DX009 (ip), vehicle: saline
[4] = dose: 150.0 mg/kg/injection, schedule: Q04DX003 (ip), vehicle: saline
[5] = dose: 50.0 mg/kg/injection, schedule: Q01DX009 (ip), vehicle: Klucel (hydroxypropylcellulose) (HPC)
[6] = dose: 100.0 mg/kg/injection, schedule: Q01DX009 (ip), vehicle: Klucel (hydroxypropylcellulose) (HPC)
[7] = dose: 400.0 mg/kg/injection, schedule: Q01DX009 (ip), vehicle: saline

## COc1cccc2c1C(=O)c1c(O)c3c(c(O)c1C2=O)C[C@@](O)(C(=O)COC(=O)c1cccnc1)C[C@@H]3OC1CC(N)C(O)C(C)O1 (some centres not stated)
dose: 24.0 mg/kg/injection, schedule: Q01DX001 (ip), vehicle: water
  survivor count: 10 of 10

## COc1ccc2[nH]c3c(C)c4cc[n+](C)c(C)c4cc3c2c1
dose: 160.0 mg/kg/injection, schedule: Q04DX003 (ip), vehicle: water
  survivor count: 4 of 10

## COc1cc2c(cc1OC)C1CC(=O)C(CC(C)C)CN1CC2 (configuration not stated)
dose: 12.5 mg/kg/injection, schedule: Q01DX009 (ip), vehicle: Klucel (hydroxypropylcellulose) (HPC)
  survivor count: 9 of 10
[1]
  survivor count: 9 of 10
[2]
  survivor count: 3 of 10

## OCCN1CCN(CCCN2c3ccccc3Sc3cccnc32)CC1
dose: 4.68 mg/kg/injection, schedule: Q01DX009 (ip), vehicle: saline
  survivor count: 7 of 10
[3]
  T/C: 127 % of control
dose: 100.0 mg/kg/injection, schedule: Q01DX009 (ip), vehicle: saline
  survivor count: 4 of 10

## CN(C)CCC[N+]1([O-])c2ccccc2CCc2ccccc21
dose: 75.0 mg/kg/injection, schedule: Q01DX009 (ip), vehicle: saline
  survivor count: 8 of 10
[4]
  survivor count: 8 of 10
dose: 300.0 mg/kg/injection, schedule: Q04DX003 (ip), vehicle: saline
  survivor count: 0 of 10

## CCC[CH2][Sn]1([CH2]CCC)[O]OC(c2ccccc2)[O]1 (configuration not stated)
dose: 0.75 mg/kg/injection, schedule: Q01DX009 (ip), vehicle: saline with Tween-80
  T/C: 131 % of control
dose: 1.5 mg/kg/injection, schedule: Q01DX009 (ip), vehicle: saline with Tween-80
  T/C: 125 % of control
dose: 6.0 mg/kg/injection, schedule: Q01DX009 (ip), vehicle: saline with Tween-80
  survivor count: 8 of 10
dose: 12.0 mg/kg/injection, schedule: Q01DX009 (ip), vehicle: saline with Tween-80
  survivor count: 3 of 10
dose: 24.0 mg/kg/injection, schedule: Q01DX009 (ip), vehicle: saline with Tween-80
  survivor count: 0 of 10

## NC1CCC(CCCC2CCCC2)CC1 (configuration not stated)
dose: 25.0 mg/kg/injection, schedule: Q01DX009 (ip), vehicle: Klucel (hydroxypropylcellulose) (HPC)
  survivor count: 10 of 10
[5]
  survivor count: 10 of 10
[6]
  survivor count: 6 of 10

## S=C1SCN(Cc2ccccc2)CN1Cc1ccccc1
[1]
  survivor count: 9 of 10
[2]
  survivor count: 8 of 10

## CCC(C)Sc1nc(N)nc2c1ncn2C1OC(CO)C(O)C1O (configuration not stated)
dose: 300.0 mg/kg/injection, schedule: Q01DX009 (ip), vehicle: Klucel (hydroxypropylcellulose) (HPC)
  survivor count: 10 of 10

## O=c1n[n+]([O-])ccn1C1OC(CO)C(O)C1O (configuration not stated)
dose: 200.0 mg/kg/injection, schedule: Q01DX009 (ip), vehicle: saline
  T/C: 131 % of control
[7]
  T/C: 138 % of control
  survivor count: 10 of 10

## CN1CCC=C(CN2c3ccccc3Sc3ccc(Cl)cc32)C1
[3]
  survivor count: 10 of 10

## Cc1c(Cl)cccc1NC(=O)Oc1cc(Cl)c(Cl)cc1Cl
[5]
  survivor count: 9 of 10
[6]
  survivor count: 10 of 10

## CC1(C)N=C(N)N=C(N)N1c1ccc(CNC(=O)Nc2cccc(S(=O)(=O)F)c2)cc1
dose: 100.0 mg/kg/injection, schedule: Q04DX003 (ip), vehicle: saline
  T/C: 138 % of control
[4]
  T/C: 128 % of control
dose: 225.0 mg/kg/injection, schedule: Q04DX003 (ip), vehicle: saline
  T/C: 143 % of control

## NCCc1c[nH]c2ccccc12
dose: 400.0 mg/kg/injection, schedule: Q04DX003 (ip), vehicle: saline
  survivor count: 4 of 10
